This passage reports binding results from PMC5399177.

Protein sequences, listed by entry. Tags and fused reporters are not part of them.
UniProt P40763: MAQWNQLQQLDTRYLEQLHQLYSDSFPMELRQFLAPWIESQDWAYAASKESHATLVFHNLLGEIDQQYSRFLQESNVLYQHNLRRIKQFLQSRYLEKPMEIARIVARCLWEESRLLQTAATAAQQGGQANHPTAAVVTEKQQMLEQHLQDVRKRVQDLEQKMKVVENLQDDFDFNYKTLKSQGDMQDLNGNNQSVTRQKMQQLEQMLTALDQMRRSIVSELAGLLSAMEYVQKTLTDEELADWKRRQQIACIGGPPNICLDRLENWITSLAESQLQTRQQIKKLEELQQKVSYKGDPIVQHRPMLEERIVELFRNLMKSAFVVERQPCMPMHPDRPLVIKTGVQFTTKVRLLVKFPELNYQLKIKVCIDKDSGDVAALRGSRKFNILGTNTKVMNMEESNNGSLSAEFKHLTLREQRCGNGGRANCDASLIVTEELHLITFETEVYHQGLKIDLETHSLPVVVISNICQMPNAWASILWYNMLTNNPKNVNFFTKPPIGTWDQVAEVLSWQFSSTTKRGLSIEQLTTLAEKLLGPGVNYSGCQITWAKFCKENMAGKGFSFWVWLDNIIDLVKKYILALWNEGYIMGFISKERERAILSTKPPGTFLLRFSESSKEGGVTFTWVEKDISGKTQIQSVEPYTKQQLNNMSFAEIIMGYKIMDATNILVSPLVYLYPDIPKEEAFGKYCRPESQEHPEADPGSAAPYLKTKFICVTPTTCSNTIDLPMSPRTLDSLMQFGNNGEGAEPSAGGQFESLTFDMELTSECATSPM

Results are given in words; binding and its absence hold for the method and conditions named. In cells and extracts the contact can be indirect. Some entries that bind do so weakly or less than the wild type. Where a sequence is shown, tags or fusion partners need not be part of it.

The target in this test is T1, Flag-DAB2IP (UniProt Q5VWQ8).
T1 sequence: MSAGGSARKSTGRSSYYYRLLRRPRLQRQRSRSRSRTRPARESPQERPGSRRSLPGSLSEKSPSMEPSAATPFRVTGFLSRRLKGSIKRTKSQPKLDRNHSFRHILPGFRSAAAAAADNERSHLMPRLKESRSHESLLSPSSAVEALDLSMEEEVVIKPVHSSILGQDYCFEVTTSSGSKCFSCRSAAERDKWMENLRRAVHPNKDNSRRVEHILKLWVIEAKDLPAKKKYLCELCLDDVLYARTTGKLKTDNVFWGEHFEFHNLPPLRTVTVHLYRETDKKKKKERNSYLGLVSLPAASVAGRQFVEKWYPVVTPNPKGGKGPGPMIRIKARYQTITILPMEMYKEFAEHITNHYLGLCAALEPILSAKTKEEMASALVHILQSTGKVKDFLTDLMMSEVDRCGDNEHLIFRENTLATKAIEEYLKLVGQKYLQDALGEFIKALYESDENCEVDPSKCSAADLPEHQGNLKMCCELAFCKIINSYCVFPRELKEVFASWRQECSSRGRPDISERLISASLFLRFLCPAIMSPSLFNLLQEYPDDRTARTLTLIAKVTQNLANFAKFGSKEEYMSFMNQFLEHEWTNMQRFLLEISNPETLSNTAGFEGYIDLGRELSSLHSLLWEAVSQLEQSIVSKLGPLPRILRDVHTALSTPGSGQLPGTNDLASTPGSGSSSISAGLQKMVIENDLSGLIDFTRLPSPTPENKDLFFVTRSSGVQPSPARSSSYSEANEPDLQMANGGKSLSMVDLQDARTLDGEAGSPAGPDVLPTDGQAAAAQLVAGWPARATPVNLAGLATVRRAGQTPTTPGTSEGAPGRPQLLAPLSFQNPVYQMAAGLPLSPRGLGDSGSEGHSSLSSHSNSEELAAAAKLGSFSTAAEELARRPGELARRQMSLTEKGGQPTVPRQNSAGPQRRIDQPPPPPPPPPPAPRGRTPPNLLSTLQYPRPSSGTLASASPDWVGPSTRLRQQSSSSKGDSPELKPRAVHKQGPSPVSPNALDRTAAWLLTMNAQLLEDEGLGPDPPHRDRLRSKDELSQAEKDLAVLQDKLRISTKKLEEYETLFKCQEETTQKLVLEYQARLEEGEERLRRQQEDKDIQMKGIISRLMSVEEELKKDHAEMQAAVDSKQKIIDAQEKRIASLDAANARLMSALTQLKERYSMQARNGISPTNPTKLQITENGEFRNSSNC
The test is described as follows: co-IP; HEK 293 cells transfected with Flag-tagged DAB2IP constructs; lysates precipitated with Flag antibody and probed with t-STAT3 antibody, or precipitated with t-STAT3 antibody and probed with Flag antibody.

For “signal transducer and activator of transcription 3 (from UniProt P40763 1-770)”, the binding entry is reported as “binds”.
